Where a name gives a salt, the structure may show the parent alone. This is one part of the list. Single values are uncertain here, since repeats match poorly.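 JEG3 cells stably express tetracycline-inducible wild-type human LRH-1, a highly sumoylated nuclear receptor. SUMO-sensitive transcripts APOC3 and MUC1, increased by SUMO-deficient LRH-1 or UBC9 knockdown, were quantified by RT-qPCR relative to TBP and DMSO controls. Primary hits had robust Z-scores above +2 or below -2, before toxicity and TBP filtering.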

For the assay, the system named is JEG3 expressing hLRH-1. Description: APOC3 transcript change (ddCt vs TBP and DMSO), Z-score over library; higher = higher APOC3 expression. To be noted: 10 µM; time (hr): 24.
Take `CCCC(C)(COC(N)=O)COC(=O)NC(C)C` (stereo unspecified) [Carisoprodol]: the “APOC3 transcript change (Z-score)” value was found to be 1.3.
In the case of `CN(C)C(=O)Oc1cccc([N+](C)(C)C)c1` [Neostigmine bromide] it was 0.18; in that of `CN(C)C(=O)Oc1cc(OC(=O)N(C)C)cc(C(O)CNC(C)(C)C)c1` (stereo unspecified) [bambuterol hydrochloride], -0.941.
The value for `S=C=NCc1ccccc1` [benzyl isothiocyanate] was -5.75.
Take `COP(=O)(OC)OC=C(Cl)Cl` [dichlorvos]: the “APOC3 transcript change (Z-score)” value was -0.399.
The value for `COP(=O)(OC)C(O)C(Cl)(Cl)Cl` (stereo unspecified) [trichlorfon] was -0.354; that for `C=CCN1CC[C@]23c4c5ccc(O)c4O[C@H]2C(=O)CC[C@@]3(O)[C@H]1C5` [naloxone hydrochloride] was -0.411.
The value for `CC[C@@]1(C2O[C@@H](C3O[C@@](O)(CC)[C@H](C)C[C@@H]3C)C[C@@H]2C)CC[C@H]([C@]2(C)CCC3(C[C@H](O)[C@@H](C)[C@@H]([C@H](C)[C@@H](OC)[C@H](C)C(=O)O)O3)O2)O1` (stereo partly specified) [monensin sodium (monensin a is shown)] was 0.42; that for `CO[C@]12C[C@@H](COC(=O)c3cncc(Br)c3)CN(C)[C@@H]1Cc1cn(C)c3cccc2c13` [nicergoline] was 0.208; that for `O=C(NC(=O)c1c(F)cccc1F)Nc1cc(Cl)c(OC(F)(F)C(F)C(F)(F)F)cc1Cl` (stereo unspecified) [lufenuron] was 0.107.
The value for `NCC(CC(=O)O)c1ccc(Cl)cc1` (racemic) [(±)-Baclofen] was -0.0733; that for `CN(C)[C@@H]1C(=O)C(C(N)=O)=C(O)[C@@]2(O)C(O)=C3C(=O)c4c(O)ccc(Cl)c4[C@@](C)(O)[C@H]3C[C@@H]12` [chlortetracycline] was 1.09.
With `CCC1(c2ccc(N)cc2)CCC(=O)NC1=O` (racemic) [(±)-p-Aminoglutethimide], the “APOC3 transcript change (Z-score)” value was -0.475.
Regarding `CN1CCN(C(=O)O[C@H]2c3nccnc3C(=O)N2c2ccc(Cl)cn2)CC1` [eszopiclone], the “APOC3 transcript change (Z-score)” value turned out to be 0.57.
In the case of `NC(=O)C[S@@](=O)C(c1ccccc1)c1ccccc1` [armodafinil] it was 0.603; in that of `CN1C2CC[C@@H]1C[C@@H](OC(=O)[C@H](CO)c1ccccc1)C2` [hyoscyamine], -1.49; in that of `CN(C)[C@@H]1C(=O)C(C(N)=O)=C(O)[C@@]2(O)C(O)=C3C(=O)c4c(O)cccc4[C@@](C)(O)[C@H]3[C@H](O)[C@@H]12` [oxytetracycline], 0.0202.
The value for `NCc1cccnc1` [picolamine] was -0.731; that for `CC(NC(C)(C)C)C(=O)c1cccc(Cl)c1` (stereo unspecified) [Bupropion hydrochloride] was 0.129.
The value for `NC1C[C@H]1c1ccccc1` (stereo partly specified) [tranylcypromine sulfate] was -1.35.
As to `CCCN1C[C@H](CSC)C[C@@H]2c3cccc4[nH]cc(c34)C[C@H]21` [Pergolide methanesulfonate], the “APOC3 transcript change (Z-score)” value was 0.154.
With `CN(C)[C@@H]1C(=O)C(C(N)=O)=C(O)[C@@]2(O)C(O)=C3C(=O)c4c(O)cccc4[C@@](C)(O)[C@H]3C[C@@H]12` [tetracycline hydrochloride], the “APOC3 transcript change (Z-score)” value is -0.443.
`CCOC(=O)CC(SP(=S)(OC)OC)C(=O)OCC` (stereo unspecified) [malathion]: the “APOC3 transcript change (Z-score)” value is 0.234.
For `CC(N)Cc1ccc(O)cc1` (stereo unspecified) [hydroxyamphetamine hydrobromide], the “APOC3 transcript change (Z-score)” value is -0.284.
Consider `CC(C)[N+](C)(CCC(C(N)=O)(c1ccccc1)c1ccccc1)C(C)C` [isopropamide iodide], for which the “APOC3 transcript change (Z-score)” value is -0.118.
As for `O=C1CC[C@@]2(O)[C@H]3Cc4ccc(O)c5c4[C@@]2(CCN3CC2CC2)[C@H]1O5` [naltrexone hydrochloride], the “APOC3 transcript change (Z-score)” value is -0.409.
The value for `CC(C)CC(N(C)C)C1(c2ccc(Cl)cc2)CCC1` (stereo unspecified) [sibutramine hydrochloride] was 0.985; that for `N#Cc1nn(-c2c(Cl)cc(C(F)(F)F)cc2Cl)c(N)c1S(=O)C(F)(F)F` (stereo unspecified) [fipronil] was -1.09; that for `CCCCOC(=O)c1ccccc1C(=O)OCCCC` [dibutyl phthalate] was -0.987.
In the case of `O=P1(N(CCCl)CCCl)NCCCO1` (stereo unspecified) [cyclophosphamide hydrate], the “APOC3 transcript change (Z-score)” value was 0.185.
In the case of `CCOP(=S)(OCC)Oc1ccc2c(C)c(Cl)c(=O)oc2c1` [coumophos] it was -1.45; in that of `Cl[C@H]1[C@H](Cl)[C@@H](Cl)[C@@H](Cl)[C@H](Cl)[C@H]1Cl` [lindane], 4.2.
In the case of `O=c1cccc2n1C[C@@H]1CNC[C@H]2C1` [cytisine] it was -1.12; in that of `Oc1ccc2c3c1O[C@H]1[C@@H](O)CC[C@@]4(O)[C@@H](C2)N(CC2CCC2)CC[C@]314` [nalbuphine hydrochloride], -0.357; in that of `CC1(C)C(C=C(Cl)Cl)C1C(=O)OC(C#N)c1cccc(Oc2ccccc2)c1` (stereo unspecified) [cypermethrin], 0.507.
The value for `Cc1ccc(-c2nc3ccc(C)cn3c2CC(=O)N(C)C)cc1` [zolpidem] was 1.65; that for `CC(C)c1cccc(C(C)C)c1O` [Propofol] was -0.31.
In the case of `O=[N+]([O-])c1cc([As](=O)(O)O)ccc1O` [roxarsone], the “APOC3 transcript change (Z-score)” value was 0.665.
In the case of `COC(C)(C)CCC[C@H](C)C/C=C/C(C)=C/C(=O)OC(C)C` [methoprene (s)] it was 0.22; in that of `CCCC(C)C1(CC)C(=O)N=C(S)NC1=O` (stereo unspecified) [thiopental sodium], -0.117; in that of `C#CC(C)(O)CC` (stereo unspecified) [meparfylon], 0.0911.
For `CC(=O)NC1CCSC1=O` (stereo unspecified) [citiolone], the “APOC3 transcript change (Z-score)” value amounted to 0.238.
In the case of `CNC(=O)Oc1ccccc1OC(C)C` [propoxur], the “APOC3 transcript change (Z-score)” value was -0.985.
Regarding `c1ccc2c(c1)OCC(C1=NCCN1)O2` (stereo unspecified) [idazoxan hydrochloride], the “APOC3 transcript change (Z-score)” value is -0.479.
As to `CCOP(=S)(OCC)Oc1nc(Cl)c(Cl)cc1Cl` [chlorpyrifos], the “APOC3 transcript change (Z-score)” value is -0.417.
The value for `c1ccc2c(c1)Nc1ccccc1S2` [phenothiazine] was 0.413; that for `CCCCCCCCCCCCCCCC[n+]1ccccc1` [cetylpyridinium chloride] was -0.0196.
Consider `[NH2][Pt]1([NH2])[O]C(=O)C2(CCC2)C(=O)[O]1` [carboplatin], for which the “APOC3 transcript change (Z-score)” value was 0.341.
In the case of `CCOc1cc(C=O)ccc1O` [ethyl vanillin] it was -0.396.
Take `CCNC1(c2cccs2)CCCCC1=O` (stereo unspecified) [tiletamine hydrochloride]: the “APOC3 transcript change (Z-score)” value is -1.44.
`C=C1C[C@@H]2[C@H](CC[C@]3(C)C(=O)CC[C@@H]23)[C@@]2(C)C=CC(=O)C=C12` [exemestane]: the “APOC3 transcript change (Z-score)” value was determined as 0.756.
The value for `COC(=O)C(c1ccccc1)C1CCCCN1` (stereo unspecified) [methylphenidate hydrochloride] was 0.684; that for `NN=C(N)N` [Aminoguanidine hemisulfate] was -0.189.
In the case of `CN1C2CCC1CC(OC(=O)C(CO)c1ccccc1)C2` (stereo unspecified) [Atropine sulfate] it was -1.01.
In the case of `CCC1(CC)C(=O)C=CNC1=O` [pyrithyldione] it was 0.281; in that of `O=[N+]([O-])c1ccc([As](=O)(O)O)cc1` [nitarsone], 0.326; in that of `CC[C@H]1CN2CCc3cc(OC)c(OC)cc3C2C[C@@H]1CC1NCCc2cc(OC)c(OC)cc21` (stereo partly specified) [emetine], -3.06.
Take `CC(C)c1c(CN(C)C(C)Cc2ccccc2)n(C)n(-c2ccccc2)c1=O` (stereo unspecified) [famprofazone]: the “APOC3 transcript change (Z-score)” value is -0.283.
As for `CN1CC(CNC(=O)OCc2ccccc2)C[C@H]2c3cccc4c3c(cn4C)CC21` (stereo in doubt) [metergoline], the “APOC3 transcript change (Z-score)” value stood at 0.0416.
Turning to `CCC1(CC)C(=O)NC(=O)NC1=O` [barbital], the “APOC3 transcript change (Z-score)” value is -0.964.
In the case of `O=C1CCO1` [beta-propiolactone] it was 0.324.
In the case of `CCCCCCCCC(=O)NCc1ccc(O)c(OC)c1` [N-Vanillylnonanamide] it was 0.905; in that of `Cc1cccc(C)c1NC(=O)CN1CCCC1=O` [nefiracetam], 0.0257; in that of `NCCCNCCSP(=O)(O)O` [amifostine], -0.664.
For `COc1ccc(OC)c(C(O)C(C)N)c1` (stereo unspecified) [Methoxamine hydrochloride], the “APOC3 transcript change (Z-score)” value was 0.212.
In the case of `C[C@]12CCC(=O)C=C1C=CC1C2CC[C@@]2(C)C1CC[C@@]2(O)CCC(=O)O` (stereo partly specified) [canrenoic acid, potassium salt] it was -0.225; in that of `CCCCCCCCCCNCCC.CCCN.CCCNCCCCCC[N+](C)(C)C.ClCC1CO1` [colesevalam hydrochloride (high mol wt copolymer @10mg/ml)], -0.241.
`CN(C)C(=O)Oc1ccc[n+](C)c1` [Pyridostigmine bromide]: the “APOC3 transcript change (Z-score)” value stood at 0.492.
The value for `O=C(O)CCCO` [sodium oxybate] was 0.4; that for `CN1[C@H]2C[C@H](OC(=O)[C@H](CO)c3ccccc3)C[C@@H]1[C@@H](O)C2` [anisodamine hydrobromide] was -1.28; that for `C[C@H](N)[C@H](O)c1ccccc1` [L(-)-Norephedrine] was 0.0893.
In the case of `CN1CCc2cc3c(cc2C1O)OCO3` (stereo unspecified) [hydrastinine hydrochloride] it was -0.873; in that of `C[C@@H]1CC[C@H]2[C@@H](C)C(=O)O[C@@H]3O[C@@]4(C)CC[C@@H]1[C@]32OO4` [artemisinin], -1; in that of `CN1C(=O)CCS(=O)(=O)C1c1ccc(Cl)cc1` (stereo unspecified) [Chlomezanone], -0.0954.
The value for `CNC(C)(C)Cc1ccccc1` [mephentermine sulfate] was -0.00524; that for `C#CC1(O)CCC2C3CCC4=CC(=O)CCC4(C)C3CCC21C` (stereo unspecified) [ethisterone] was 0.874.
As for `CC(C)C[C@H]1C(=O)N2CCC[C@H]2[C@]2(O)O[C@](NC(=O)[C@@H]3C=C4c5cccc6[nH]c(Br)c(c56)C[C@H]4N(C)C3)(C(C)C)C(=O)N12` [bromocriptine mesylate], the “APOC3 transcript change (Z-score)” value worked out at 0.479.
In the case of `CN1CCC[C@@H]1Cc1c[nH]c2cc(CCS(=O)(=O)c3ccccc3)ccc12` [eletriptan hydrobromide] it was -0.606.
As to `CC(C)=CC1C(C(=O)OCc2cccc(Oc3ccccc3)c2)C1(C)C` (stereo unspecified) [phenothrin], the “APOC3 transcript change (Z-score)” value is -1.03.
As to `CNCC(O)c1ccc(O)cc1` (stereo unspecified) [oxedrine], the “APOC3 transcript change (Z-score)” value is -0.818.
Regarding `CC[C@@H](CO)NC(=O)[C@@H]1C=C2c3cccc4[nH]cc(c34)C[C@H]2N(C)C1` [methylergonovine maleate], the “APOC3 transcript change (Z-score)” value worked out at 0.479.

For the origin of these results see the supplement of paper PMC4749390.
